The text below walks through data of PubChem BioAssay AID2685 (National Center for Advancing Translational Sciences (NCATS), 2010).

This assay is described as follows: qHTS Assay for Lipid Storage Modulators in Drosophila S3 Cells.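 As to cell number change: cells counted by Cell Tracker Red CMTPX staining in the red channel.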 Conditions: BODIPY lipid droplet fluorescence, 18-24 h; for cell number change: measured here: cell count max response, cells fed with added oleic acid. The source says: NIH Molecular Libraries Probe Production Centers Network [MLPCN] NIH Chemical Genomics Center [NCGC] MLPCN Grant: 1 R03 MH085686-01 Assay Submitter (PI): Beller, Mathias; Max-Planck-Institut fur Biophysikalische Chemie NCGC Assay Overview: Storing lipids as a reservoir for energy or the anabolism of elementary metabolites is a common feature of probably all cells and is conserved from bacteria to humans. The universal cellular lipid storage organelle is the so-called lipid storage droplet (LD). Although ubiquitous, LDs share a simple structure composed of a hydrophobic core that harbors the storage lipids, which is shielded by a droplet-specific phospholipid monolayer to which proteins are attached. The current model of LD biogenesis involves an incorporation of the lipid core into the membrane leaflets of the endoplasmic reticulum (ER) followed by a subsequent budding-like maturation of a LD, which ultimately pinches off. Once released, LD volume can increase by localized lipogenesis or fusion of existing droplet. Storage lipids are re-mobilized enzymatically by lipase activity. Lipase regulation in the adipocyte is heavily studied and involves multiple components including catecholamine signaling, the LD-associated proteins Perilipin and comparative gene identification (CGI-58) and at least two lipases named hormone sensitive lipase (HSL) and adipocyte triglyceride lipase (ATGL). LD regulation outside of the adipocyte is poorly understood and only few components are known. However, there is an urgent need to learn more about ectopic fat depots as mislocalized storage of lipids, for example in the liver or muscle, is an eminent health problem associated with insulin resistance or the metabolic syndrome. We developed a laser-scanning cytometer assay to enable 1,536-well screening and combined the results of the small molecules screen with an RNAi database based on lipid storage.
Triacsin C (Sigma-Aldrich T-4540), an inhibitor of long-chain fatty acyl CoA synthetase that blocks synthesis of triglycerides, was used as a positive control for lipid under-storage. A total of 23 nL of compound solution of different concentrations were transferred to the assay plates using a Kalypsys pin tool equipped with a 1,536-pin array containing 10-nL slotted pins (FP1S10, 0.457-mm diameter, 50.8 mm long; V&P Scientific). One microliter of oleic acid (400 uM) was added, and the plate was lidded with stainless steel rubber gasket lined lids containing pinholes. […] Fluorescence was detected by excitation of the fluorophores with a 488-nm laser on an Acumen Explorer (TTP Lab Tech). The total intensity in channel 2 (500-530 nm) reflected lipid droplet accumulation. Cells were detected using channel 3 (575-640 nm) with 5-um width and 100-um depth filters. The ratio of the number of objects in PMT channel 2 over the number of objects in PMT channel 3 was also calculated. Percent activity was computed relative to an internal control (100% inhibited lipid droplet deposition due to the presence of 20 uM Triacsin C), which was added to 32 wells/plate.
A general note: qHTS replaces the single test concentration by a dilution series.

Where [1] appears, read: measured here: lipid fluorescence (Fed channel) AC50, cells fed with added oleic acid.
Where [2] appears, read: measured here: cell number channel AC50, cells fed with added oleic acid.

The other results are listed elsewhere or left out. The main result of the screen is listed elsewhere. These columns were measured beside it and carry no call. Compounds called inactive in the main read-out are mostly missing here. The note in brackets gives the kind of curve behind each potency; many fits are weak.

The term AC50 denotes the concentration at which the activity in the assay is half-maximal. Higher therefore signals weaker potency. With `CCOC(=O)c1sc2nc(CSc3ccccc3)[nH]c(=O)c2c1C`, the cell number change was -7.57%. For the same molecule, the half-maximal activity concentration (AC50) under setting [1] is 20600 nM [falling, single point]. Turning to `O=[N+]([O-])c1ccc(/C([O-])=C(/C(=S)NCc2ccco2)[n+]2ccccc2)cc1`, the cell number change was -1.95%. For the same molecule, under setting [1], the half-maximal activity concentration (AC50) was 3260 nM [falling, single point].

With `Cc1ccc(C(=O)OCC(=O)NCc2ccco2)cc1`, the cell number change came to 8.15%. Under setting [1], the AC50 was 580 nM [rising, single point]. Consider `CN(C)c1cccc2c(C=C(C#N)C#N)ccc(N(C)C)c12`, for which the cell number change is -30.9%. Also, the half-maximal activity concentration (AC50) under setting [2] was 2060 nM [falling, full curve, poor fit]. Further, under setting [1], the AC50 is 651 nM [falling, full curve]. For the molecule `COc1ccc(NC(=O)COC(=O)CCCc2c[nH]c3ccccc23)cc1`, the cell number change is 48.9%. Further, under setting [2], the AC50 is 32600 nM [rising, partial curve, poor fit]. As for `C=CCNC(=O)CN1C(=O)c2cccc3cccc1c23`, the cell number change was found to be 13.3%.

Take `Cc1noc(C)c1COC(=O)c1ccccc1NC(=O)c1ccco1`: the half-maximal activity concentration (AC50) runs as follows: under setting [2], 4610 nM [rising, single point]; under setting [1], 2060 nM [rising, partial curve]. Regarding `CCc1c(O)nc(SCC(=O)Nc2ccccc2)n(C(C)CC)c1=O` (configuration not stated), the cell number change came out at 125%. Also, the AC50 under setting [1] was 731 nM [falling, single point]. Consider `CCOC(=O)C1=NOC(Cn2cc(C(C)=O)c(=O)[nH]c2=O)C1` (configuration not stated), for which the cell number change was 12.6%. Also, the AC50 under setting [1] is 4.61 nM [falling, full curve, poor fit]. As for `Cc1ccc(CN(C)C(=O)c2cccc(S(=O)(=O)N3CCc4ccccc4C3)c2)o1`, the cell number change is -13.6%. Also, the AC50 under setting [2] was 130 nM [falling, full curve, poor fit].

Consider `O=C(Nc1ccccc1)O/N=C1\CCCCC1c1ccc([N+](=O)[O-])cc1[N+](=O)[O-]` (configuration not stated), for which the cell number change turned out to be 15.8%. Take `Nc1c(Cl)cc(C2=NCCn3nc4ccccc4c32)cc1Cl`: under setting [1], the AC50 is 29100 nM [falling, single point]. With `O=C(CNc1ccccc1)N/N=C/c1ccc2c(c1)OCO2`, the cell number change was -0.0444%. Moreover, the AC50 under setting [1] was 5.17 nM [rising, full curve, poor fit]. On to `O=C(NNC(=O)c1cc2c(s1)CCCC2)c1ccccc1`, for which the cell number change turned out to be 33.9%. The AC50 under setting [2] is 2310 nM [rising, full curve, poor fit]. For the same molecule, under setting [1], the AC50 was 1030 nM [rising, full curve, poor fit].

Turning to `CCCN1CCC(NC(=O)Nc2ccc(OC)c(OC)c2)CC1`, the cell number change was 9.84%. For `CCOc1ccccc1N(CC(=O)Nc1ccc(S(=O)(=O)N2CCOCC2)cc1)S(=O)(=O)c1ccc(Cl)cc1`, the cell number change was -25.3%. Under setting [1], the AC50 was 5800 nM [falling, single point]. For `Nc1nc(-c2ccccc2)[nH]c(=O)c1N`, the cell number change is -10.5%. In addition, the AC50 under setting [1] was 10300 nM [rising, partial curve, poor fit]. As to `Cc1ccc(S[C@@H](CCN2CC[C@H](O)CCC2=O)c2ccccc2)cc1`, the cell number change worked out at 12.9%. In the case of `COc1ccccc1CCN1CCCC(CN(C)C(=O)CCC(=O)N(C)C)C1` (configuration not stated), the cell number change worked out at 9.62%. Also, the AC50 under setting [1] was 731 nM [rising, single point]. As for `CCOC(=O)CCc1nc2ccccc2[nH]c1=O`, the cell number change was -8.83%. The concentration at half-maximal activity (AC50) under setting [1] was 731 nM [falling, full curve]. As to `CC(=O)N1CCN(Cc2nc3cc(NC(=O)c4ccc(Cl)cc4)ccc3n2C)CC1`, the cell number change turned out to be 260%. Besides, the concentration at half-maximal activity (AC50) under setting [2] is 16400 nM [rising, partial curve].

Regarding `Cc1c(Cl)cnc(NC(=O)COC(=O)c2ccc3c(c2)OCO3)c1Cl`, the cell number change was 0.23%. For the same molecule, under setting [2], the AC50 was 1840 nM [rising, partial curve]. `CCC1(CC)Cc2ccccc2C(=O)N1`: the cell number change is -16.5%. With `CCN(CC)S(=O)(=O)c1cccc(C(=O)Oc2cccnc2)c1`, the cell number change is -19.4%. Moreover, the AC50 under setting [1] was 5.17 nM [falling, full curve, poor fit]. Consider `COCCC(=O)N1CCC(n2nccc2NC(=O)c2ccccc2C)CC1`, for which the AC50 under setting [1] is 580 nM [falling, single point]. Turning to `CCOc1ccc2nc(SCC(=O)NCc3ccco3)sc2c1`, the concentration at half-maximal activity (AC50) under setting [2] is 4610 nM [falling, single point] and the half-maximal activity concentration (AC50) under setting [1] was 6510 nM [falling, single point]. On to `COC(=O)[C@@H](NC(=O)N1CCN(C(=O)C2COc3ccccc3O2)CC1)C(C)C` (some centres not stated), for which the cell number change was 1.91%. Moreover, the concentration at half-maximal activity (AC50) under setting [1] is 6510 nM [rising, single point]. Turning to `CC(NC(=O)CSCc1ccccc1Br)c1ccccc1` (configuration not stated), the cell number change was 10.6%. Also, the half-maximal activity concentration (AC50) under setting [1] is 20600 nM [rising, single point]. Regarding `Cc1cc(NC(=O)COC(=O)C2CCCN2C(=O)c2cccs2)no1` (configuration not stated), the cell number change was 2.16%. Besides, the half-maximal activity concentration (AC50) under setting [1] was 1460 nM [falling, full curve, poor fit]. On to `CCN1C(=O)/C(=C/C2=Cc3ccccc3OC2C)SC1=S` (configuration not stated), for which the cell number change was -0.727%. Under setting [1], the half-maximal activity concentration (AC50) is 2910 nM [falling, partial curve]. Regarding `O=C(c1cccc(S(=O)(=O)N2CCOCC2)c1)N1CCN(c2ccccc2)CC1`, the cell number change amounted to 20.2%. Further, under setting [1], the AC50 was 9200 nM [rising, partial curve, poor fit].
